Measurements: PMC10665427

Molecular target: T1, Lon^EQ (Lon E420Q, Walker-B mutant) (C. crescentus) (UniProt B8GX12)
T1 sequence: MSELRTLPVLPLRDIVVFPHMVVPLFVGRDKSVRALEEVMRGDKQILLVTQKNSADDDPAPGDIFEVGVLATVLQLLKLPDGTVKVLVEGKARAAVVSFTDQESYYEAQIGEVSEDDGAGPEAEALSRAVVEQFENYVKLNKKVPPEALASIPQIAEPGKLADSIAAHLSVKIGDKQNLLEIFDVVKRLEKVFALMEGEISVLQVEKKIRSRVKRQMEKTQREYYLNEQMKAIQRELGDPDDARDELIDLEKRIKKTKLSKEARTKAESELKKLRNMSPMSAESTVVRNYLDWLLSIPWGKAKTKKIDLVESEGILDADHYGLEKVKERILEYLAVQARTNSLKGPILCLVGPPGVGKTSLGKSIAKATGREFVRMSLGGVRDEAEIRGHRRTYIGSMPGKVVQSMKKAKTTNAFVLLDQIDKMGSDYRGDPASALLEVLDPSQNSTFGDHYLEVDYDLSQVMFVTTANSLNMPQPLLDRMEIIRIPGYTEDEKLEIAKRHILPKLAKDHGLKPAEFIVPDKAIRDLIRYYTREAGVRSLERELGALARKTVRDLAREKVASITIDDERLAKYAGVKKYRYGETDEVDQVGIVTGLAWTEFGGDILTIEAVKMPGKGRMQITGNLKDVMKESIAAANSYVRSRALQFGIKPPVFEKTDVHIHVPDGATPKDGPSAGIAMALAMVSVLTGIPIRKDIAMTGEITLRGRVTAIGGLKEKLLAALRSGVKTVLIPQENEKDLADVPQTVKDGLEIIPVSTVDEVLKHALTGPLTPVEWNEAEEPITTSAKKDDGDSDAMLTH
Assay: native MS; purified proteins buffer exchanged into 200 mM ammonium acetate pH 8.0, mixed in equimolar ratios (LarA also in 3-fold excess); nano ESI, Waters Synapt G2, source temperature 30 °C; both purified

- binding: no binding
Substance: LarA^Δ5, purified (C. crescentus) (domain or fragment)

These are yes or no findings as the source states them, for the method shown.
